# Some of the results follow. Further columns of the screen follow, without active or inactive calls. The list favours compounds with an active or inconclusive main result. Words in brackets tell the shape of the fitted curve; partial curves, single points and poor fits give uncertain potencies.
# Test: IkB Signaling
# Conditions: ABC-DLBCL IkBa-CBG/CBR dual luciferase ratio (green luciferase fused to IkBa over red control in OCI-Ly3 lymphoma cells), 4 h; measured here: control luc red channel unless noted
# How it was run: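 In this assay, an IκBα–CBG68 fusion accumulates when IKK-driven degradation is blocked; native CBR normalizes for cell number. OCI-Ly3 cells were treated 4 h with compound and doxycycline, then green and red light read after Chroma-Glo addition.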
row,SMILES,AC50
1,COc1ccc(S(=O)(=O)N(CCc2ccccc2)CC(=O)Nc2ccc(C)c(C)c2)cc1OC,"12.6 µM [falling, partial curve]"
2,C[C@@H](NCc1cc(Br)cc2[nH]c(=O)c(=O)[nH]c12)P(=O)(O)O,"12.6 µM [rising, partial curve]"
3,CCOc1cc(-c2nnc(SCC(=O)Nc3ccc(F)c(F)c3)nc2-c2ccc(OC)c(OCC)c2)ccc1OC,"3.16 µM [falling, full curve]"
4,O=C(Nc1cccc(-c2nc3ccccc3o2)c1)c1ccc(-c2ccc(Br)cc2)o1,"5.01 µM [falling, full curve]"
5,O=S(=O)(Nc1ccc(-c2ccc(N3CCCC3)nn2)cc1)c1ccc(Cl)cc1,"0.631 µM [falling, full curve, poor fit]"
6,COc1ccc(Cc2nc3ccccc3[nH]c2=O)cc1,"0.0316 µM [rising, full curve, poor fit]"
7,C=Cc1ccc(Cn2c(C)c(CNCc3cccc(Br)c3)c(C(=O)O)c2C)cc1,"25.1 µM [falling, single point]"
8,Cc1cccc(Cn2c(CNS(=O)(=O)c3ccc4c(c3)CCCC4)nc3cccnc32)c1,"15.8 µM [falling, partial curve]"
9,Cc1c(Cl)cccc1-c1ccc(C(=O)Nc2ccc(F)cc2)o1,"15.8 µM [falling, partial curve]"
10,CN(C1=NC(=O)C(CC(=O)Nc2ccc(Br)cc2)S1)c1ccc(O)cc1 (configuration not stated),"10 µM [falling, partial curve]"
11,CCOc1ccc(-c2cccc(NS(=O)(=O)c3c(C)cc(C)cc3C)c2)nn1,"15.8 µM [falling, partial curve]"
12,COc1ccccc1OCC(=O)NCC(c1ccc(Cl)cc1)N1CCCCC1 (configuration not stated),"25.1 µM [falling, single point]"
13,CCOc1ccc(-c2nnc(-c3cccs3)o2)cc1OCC,"0.158 µM [rising, full curve, poor fit]"
14,[O-][n+]1onc2c1CCc1c-2nn(-c2ccccc2Cl)[n+]1[O-],"15.8 µM [falling, partial curve]"
15,Cc1c(Cl)cccc1NC(=O)Cn1c(CCC(=O)O)ccc1-c1cccs1,"25.1 µM [falling, single point]"
16,CCOC(=O)c1c(NC(C)=O)c2c3c(sc2n1Cc1nc(-c2cccc(Cl)c2)oc1C)CCCC3,"0.126 µM [falling, single point]"
17,CC(C)(C)OC(=O)N1CCC(c2c(C(=O)N3CCCCC3)cnn2-c2ccc(Cl)cc2)CC1,"25.1 µM [falling, single point]"
18,COc1ccc(N2CC(NC(=O)COc3ccccc3)CC2=O)cc1OC (configuration not stated),"1.58 µM [rising, partial curve]"
19,CCOC(=O)c1cnc2ccc(OC)cc2c1NCCc1ccccc1,"25.1 µM [falling, partial curve]"
20,CN(c1ncnc2onc(-c3cccc(Cl)c3)c12)C1CCCCC1,"10 µM [falling, partial curve]"
21,CCN=c1scc(-c2ccc3c(c2)NC(=O)CO3)n1N=C1CCCC1,"10 µM [falling, partial curve]"

row,SMILES,AC50
1,CCOC(=O)C1CCCN(C(=O)c2nn(-c3ccc(OC)cc3)c(=O)c3c2c2ccccc2n3C)C1 (configuration not stated),"0.158 µM [rising, full curve, poor fit]"
2,COc1cc(Cl)c(C)cc1NC(=O)CSc1nnc(-c2ccco2)n1CC(C)C,"15.8 µM [falling, partial curve]"
3,CCc1cccc(NC(=O)C2CCN(C(=O)c3cnn(-c4ccccc4)c3-n3cccc3)CC2)c1,"15.8 µM [falling, partial curve]"
4,Nc1nc(Nc2ccccc2F)sc1C(=O)c1ccc(Cl)cc1,"25.1 µM [falling, single point]"
5,CCc1ccc(-n2nc(C)c3c(C)cc(=O)n(CC(=O)N4CCCc5ccccc54)c32)cc1,"12.6 µM [falling, partial curve]"
6,O=C(CSc1nc2c([nH]c3ccccc32)c(=O)n1-c1ccc(F)cc1)N1CCCCC1,"2.51 µM [rising, full curve]"
7,CCc1ccc(OCC(=O)N(Cc2ccc(Cl)cc2)C2CCS(=O)(=O)C2)cc1 (configuration not stated),"31.6 µM [falling, single point]"
8,CCOC(=O)c1oc2c(c1C)-c1nn(Cc3ccc(Cl)cc3)cc1CC2,"39.8 µM [falling, partial curve]"
9,CCC(C)NC(=O)Cn1c(=O)cc(-c2ccccc2)c2c(C)nn(C)c21 (configuration not stated),"15.8 µM [rising, partial curve, poor fit]"
10,Cn1c(NCCO)nc2c1c(=O)n(Cc1ccccc1Cl)c(=O)n2C,"3.16 µM [falling, partial curve, poor fit]"
11,O=C(CCc1nc(-c2ccccc2F)no1)Nc1ccc(Oc2ccccc2)cc1,"12.6 µM [falling, partial curve]"
12,COc1ccc(C2c3c(oc4ccc(F)cc4c3=O)C(=O)N2Cc2ccc3c(c2)OCO3)cc1 (configuration not stated),"5.01 µM [rising, full curve, poor fit]"
13,CCOC(=O)Cn1c(=O)oc2cc(S(=O)(=O)NCc3ccccn3)ccc21,"12.6 µM [falling, partial curve]"
14,N#C/C(=C\c1ccccc1)c1nc(-c2cc3cc(Br)ccc3oc2=O)cs1,"0.158 µM [falling, full curve, poor fit]"
15,CCc1ccc(CNCc2c(C(=O)O)n(Cc3cccc(F)c3)c3cc(OC)ccc23)cc1,"25.1 µM [falling, partial curve]"
16,Cc1cccc(NC(=O)c2c(NC(=O)C(F)(F)F)sc3c2CCCCC3)c1,"0.631 µM [falling, full curve]"
17,CCOC(=O)c1cccc(Nc2c3c(nc4ccccc24)CCC3)c1,"20 µM [falling, partial curve]"
18,O=C(NCCS(=O)(=O)N1CCN(c2ccccc2)CC1)C(c1ccccc1)c1ccccc1,"0.00631 µM [falling, full curve, poor fit]"
19,O=C(CSc1nccn1-c1ccc(Cl)cc1)Nc1ccc2c(c1)OCO2,"15.8 µM [falling, partial curve]"
20,COc1ccc(NC(=O)Cn2c(=O)oc3cc(S(=O)(=O)N4CCC(C)CC4)ccc32)c(OC)c1,"15.8 µM [falling, single point]"
21,CCc1c(C)nc2cc(-c3cc(OC)cc(OC)c3)nn2c1N1CCCC1,"25.1 µM [falling, single point]"

row,SMILES,AC50
1,CCCS(=O)(=O)c1c(Nc2ccccc2C)sc(C(=O)c2ccccc2)c1N,"25.1 µM [falling, single point]"
2,Cc1ccc(NS(=O)(=O)c2cc(Br)cc3c2N(C(=O)C2CC2)CC3)cc1C,"15.8 µM [falling, partial curve]"
3,CC(C)NCC(O)Cn1c2c(c3ccccc31)CCc1c-2cnn1-c1ccccc1 (configuration not stated),"7.94 µM [falling, partial curve]"
4,CCOc1ccccc1CNC(=O)CCn1ccc2cc(S(=O)(=O)N3CCC(C)CC3)ccc21,"15.8 µM [falling, single point]"
5,COC(=O)c1ccc(Cn2nnc3sc4c(c3c2=O)CCC(C)C4)cc1 (configuration not stated),"12.6 µM [falling, partial curve]"
6,COc1ccc(N2C(=O)CC(Sc3nnc(-c4ccccc4)o3)C2=O)cc1 (configuration not stated),"25.1 µM [falling, partial curve]"
7,O=C(c1ccc(Cn2cc(Br)cn2)cc1)N1CCN(c2ccccc2)CC1,"15.8 µM [falling, partial curve]"
8,COc1ccc2c(CNCCc3cccs3)c(C(=O)O)n(Cc3ccccc3)c2c1,"31.6 µM [falling, single point]"
9,CCOc1ccc(CCNC(=O)c2cc3c(=O)[nH]c4ccc(C)cc4c3s2)cc1OCC,"31.6 µM [falling, single point]"
10,CCc1ccc2c(c1)NC(c1cccs1)=NC(c1ccc(F)cc1)=N2,"20 µM [falling, single point]"
11,COc1ccccc1C(=O)Nc1cc2c(cc1N1CCOCC1)n(C)c(=O)n2C,"0.316 µM [rising, full curve]"
12,COc1cc2[nH]c(=O)n(CCCCCC(=O)N3CCN(c4cccc(C(F)(F)F)c4)CC3)c(=O)c2cc1OC,"10 µM [falling, partial curve]"
13,COc1cccc(N2CCN(C(=O)c3c(C)oc4ncnc(N5CCOCC5)c34)CC2)c1,"31.6 µM [falling, single point]"
14,CCn1c(=O)n(CC)c2cc(N3CCCCC3)c(NC(=O)Nc3ccccc3Cl)cc21,"20 µM [falling, single point]"
15,CCOC(=O)Cc1ccc(NC(=O)NCc2ccc3c(c2)CCN3C(=O)CC)cc1,"0.00631 µM [falling, full curve, poor fit]"
16,Cc1cccc(-n2c(-c3ccccc3)cn3c4c(=O)[nH]c(=O)n(C)c4nc23)c1,"10 µM [rising, partial curve]"
17,Cc1cc(C)cc(NC(=O)c2cc(S(=O)(=O)NCc3ccco3)ccc2F)c1,"10 µM [falling, partial curve]"
18,Cc1cc(C)c(Cn2c3ccccc3c3cnn(CC(=O)N4CCCCCC4)c(=O)c32)c(C)c1,"3.16 µM [falling, full curve]"
19,Cc1cccc(C)c1OCC(=O)Nc1nc(-c2ccc(Br)cc2)ns1,"0.794 µM [falling, single point]"
20,CCOc1ccc(C(=O)Nc2c(C(=O)Nc3ccccc3F)oc3ccccc23)cc1OCC,"1 µM [rising, full curve]"

# Quoted at random: 3 records from the list.
row,SMILES,AC50
18,O=C(NCCS(=O)(=O)N1CCN(c2ccccc2)CC1)C(c1ccccc1)c1ccccc1,"0.00631 µM [falling, full curve, poor fit]"
20,COc1ccc(NC(=O)Cn2c(=O)oc3cc(S(=O)(=O)N4CCC(C)CC4)ccc32)c(OC)c1,"15.8 µM [falling, single point]"
15,CCc1ccc(CNCc2c(C(=O)O)n(Cc3cccc(F)c3)c3cc(OC)ccc23)cc1,"25.1 µM [falling, partial curve]"

# Reprinted from the results shown for reference:
row,SMILES,AC50
18,Cc1cc(C)c(Cn2c3ccccc3c3cnn(CC(=O)N4CCCCCC4)c(=O)c32)c(C)c1,"3.16 µM [falling, full curve]"
19,Cc1cccc(C)c1OCC(=O)Nc1nc(-c2ccc(Br)cc2)ns1,"0.794 µM [falling, single point]"
